No constants are given. Whether binding was seen depends on the method and setting. Binding seen in cells or lysates may run through a third protein. Some entries that bind do so weakly or less than the wild type.

Chains of the proteins cited; added tags and fusions are not shown.
UniProt P03071: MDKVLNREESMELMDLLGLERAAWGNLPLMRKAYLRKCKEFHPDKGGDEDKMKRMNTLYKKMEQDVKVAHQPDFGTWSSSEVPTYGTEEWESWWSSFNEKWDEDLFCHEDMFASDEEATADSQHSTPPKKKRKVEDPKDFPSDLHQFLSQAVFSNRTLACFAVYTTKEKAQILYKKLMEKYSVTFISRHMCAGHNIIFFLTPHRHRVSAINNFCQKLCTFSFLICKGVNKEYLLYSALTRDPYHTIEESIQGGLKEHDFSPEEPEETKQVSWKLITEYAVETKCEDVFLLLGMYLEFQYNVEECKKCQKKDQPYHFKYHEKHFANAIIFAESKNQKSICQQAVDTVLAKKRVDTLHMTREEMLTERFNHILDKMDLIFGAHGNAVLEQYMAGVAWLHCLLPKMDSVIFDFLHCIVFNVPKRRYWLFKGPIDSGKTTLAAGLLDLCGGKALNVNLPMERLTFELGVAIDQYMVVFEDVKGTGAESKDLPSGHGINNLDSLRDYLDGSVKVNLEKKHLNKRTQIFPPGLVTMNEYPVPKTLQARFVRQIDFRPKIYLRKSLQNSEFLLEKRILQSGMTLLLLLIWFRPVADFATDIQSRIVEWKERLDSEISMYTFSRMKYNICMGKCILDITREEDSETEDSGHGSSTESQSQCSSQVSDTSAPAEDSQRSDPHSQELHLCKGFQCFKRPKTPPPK
UniProt Q06609: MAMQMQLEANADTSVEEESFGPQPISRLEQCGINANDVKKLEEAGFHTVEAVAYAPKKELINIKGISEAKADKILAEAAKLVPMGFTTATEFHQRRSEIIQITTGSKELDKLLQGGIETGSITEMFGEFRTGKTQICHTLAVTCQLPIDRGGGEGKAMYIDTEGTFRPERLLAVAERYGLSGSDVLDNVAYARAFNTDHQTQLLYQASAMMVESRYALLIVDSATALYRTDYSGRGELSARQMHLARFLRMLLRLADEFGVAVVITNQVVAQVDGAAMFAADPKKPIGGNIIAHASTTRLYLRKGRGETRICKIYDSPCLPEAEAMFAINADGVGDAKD

The record followed here is article doi:10.1101/2021.05.13.443803.

This test addresses BK polyomavirus (BKPyV) Large T antigen (BK polyomavirus (Dunlop strain)) (UniProt P03071). The test can be described thus: proximity ligation.

For Rad51 (from UniProt Q06609 1-339), the binding result is listed as “binds”.
